Assay results reported in paper PMC7819943, “Rice protein-binding microarrays: a tool to detect cis-acting elements near promoter regions in rice”.
The list shows a part of the results.

Each sequence was assayed against T1, OsSMF1 (Oryza sativa, UniProt Q6ZLB0 1-436) (assay: protein-binding microarray (RPBM); PBS, 2% BSA, 51.3 ng/ul salmon testes DNA, 50 uM zinc acetate, 200 nM TF, 25 C, 1 h; high values mean tight binding). Conditions: protein: recombinant; tags: N-terminal polyhistidine and DsRed monomer fusion (pET32a); chain copies: 2; label: CyDye5-dUTP incorporated in the synthesized complementary strand; 3' TTTTT single-stranded linker to array surface; dsDNA, one strand shown.
T1 sequence: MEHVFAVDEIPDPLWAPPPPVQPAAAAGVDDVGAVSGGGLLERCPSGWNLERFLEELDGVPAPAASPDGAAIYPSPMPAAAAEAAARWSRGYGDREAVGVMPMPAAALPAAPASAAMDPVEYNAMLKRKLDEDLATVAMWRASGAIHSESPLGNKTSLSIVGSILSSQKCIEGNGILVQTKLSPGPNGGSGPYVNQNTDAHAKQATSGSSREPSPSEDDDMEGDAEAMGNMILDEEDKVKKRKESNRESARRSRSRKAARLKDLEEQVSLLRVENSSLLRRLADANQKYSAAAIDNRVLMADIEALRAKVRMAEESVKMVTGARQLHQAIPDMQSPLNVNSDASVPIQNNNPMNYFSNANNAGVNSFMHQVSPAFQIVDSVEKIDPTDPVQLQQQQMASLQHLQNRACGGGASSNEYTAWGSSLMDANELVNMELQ
Procedure, shortened: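 Per-feature fluorescence intensity (arbitrary units), read on an Axon 4000B scanner, is the binding signal. Transcription factors carrying an N-terminal polyhistidine tag and DsRed fusion were expressed in E. coli BL21-CodonPlus and purified on Ni–NTA. A custom Agilent array, made double-stranded by primer extension with Cy5-dUTP and blocked with 2% BSA, was incubated with 200 nM protein in PBS, 2% BSA, salmon testes DNA and 50 µM zinc acetate at 25 °C for 1 h and then washed.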

| Sequence | binding signal |
| --- | --- |
| CCATGTCCATGTGTCCGTGATTAGTCCATACAGTCGTCTGCGGAGTCACCTAGTGCAG | 3990 fluorescence intensity (a.u.) |
| CTACTTAAACGCCACGTTACTTGTCACTGCTCTACCTGCACGGAGTCACCTAGTGCAG | 6500 fluorescence intensity (a.u.) |
| ATAAAATATTGAACTGCTAATGATAATATAATCGAGTCAACGGAGTCACCTAGTGCAG | 4670 fluorescence intensity (a.u.) |
| GATCTCCGGTGGGCCGTGGGGCGCCGCGTGGCGGAGAGAGCGGAGTCACCTAGTGCAG | 3320 fluorescence intensity (a.u.) |
| GAAATTGGAGATGATGTGACTGAAAAGTTGTGTGTGTATGCGGAGTCACCTAGTGCAG | 3450 fluorescence intensity (a.u.) |
| TTGGTACTGATACTGTACGTGTCAACGAGTTGAGACCCGCCGGAGTCACCTAGTGCAG | 6740 fluorescence intensity (a.u.) |
| CTCCTAATTAGCAATTTGCTTACTCTTAATCTCCCTCACTCGGAGTCACCTAGTGCAG | 27500 fluorescence intensity (a.u.) |
| GCCGTTCGCCACCACGCCTACTTCGCCGGCTGCCCTCGCCCGGAGTCACCTAGTGCAG | 3470 fluorescence intensity (a.u.) |
| CGCGAGCTACGTGCTTACGTTGGCTCTGTCGATTATTCCACGGAGTCACCTAGTGCAG | 5490 fluorescence intensity (a.u.) |
| CGCTGGCTTCTGTTGTGCTACTTAATTACGTGTTTAGTGCCGGAGTCACCTAGTGCAG | 5300 fluorescence intensity (a.u.) |
| AAAGGGTAGTACACACACTGCCGCCTCAGCGGGGAGATCTCGGAGTCACCTAGTGCAG | 3310 fluorescence intensity (a.u.) |
| GATGCCATCTAATTTTAAATGATGATGTGGAGAAGAGAGTCGGAGTCACCTAGTGCAG | 6180 fluorescence intensity (a.u.) |
| AAAGCTGCTGATGTTGGTGCTGACCTTGTTGGGAAGGTGGCGGAGTCACCTAGTGCAG | 3570 fluorescence intensity (a.u.) |
| CTTACTCTCTCCGTCTCTAAATATTTGACGCCGTTGACTTCGGAGTCACCTAGTGCAG | 33600 fluorescence intensity (a.u.) |
| GCCCAATCGCCGCCCGCCACGTGCCCCTTCCCGGATACCGCGGAGTCACCTAGTGCAG | 9810 fluorescence intensity (a.u.) |
| TGGTCCAGTCATTCATCTATGCACGTACATTAACTCCTTCCGGAGTCACCTAGTGCAG | 5460 fluorescence intensity (a.u.) |
| TGGCGTGTAATACGAAAGGAAATCGTGACATGGGCAGATCCGGAGTCACCTAGTGCAG | 4580 fluorescence intensity (a.u.) |
| GGGGTATGCAATCATGCGTATGCATGTCAGCATGTGTCTGCGGAGTCACCTAGTGCAG | 6010 fluorescence intensity (a.u.) |
| GGCACCACGTCCCGAAACGGACGGTGCTGAGTCGGCGGAGCGGAGTCACCTAGTGCAG | 5580 fluorescence intensity (a.u.) |
| TTGGATTGGACCTGACCTGGGAGGCCATGACGGAGTTGGCCGGAGTCACCTAGTGCAG | 3210 fluorescence intensity (a.u.) |
| CCCTCTCTCCTCCACGTCAACTCTTCGCCAACGTGGCTGACGGAGTCACCTAGTGCAG | 10900 fluorescence intensity (a.u.) |

| Sequence | binding signal |
| --- | --- |
| TATCTTTACCCTCTACATCATTTTGATTGTGTCATTGCCTCGGAGTCACCTAGTGCAG | 5590 fluorescence intensity (a.u.) |
| TGCTAACTGACGTCTGAGGTGGCTCGTGTGCAGTCGTCCACGGAGTCACCTAGTGCAG | 6590 fluorescence intensity (a.u.) |
| CACCTAGCTCTCACTTGCCACCTCAACTTTCACCATTAACCGGAGTCACCTAGTGCAG | 4270 fluorescence intensity (a.u.) |
| CCCTTTTCGACGGAAGACGAACTGGTGCTTTGGGGAGTTTCGGAGTCACCTAGTGCAG | 3870 fluorescence intensity (a.u.) |
| CTGCCCAACCCTCTCACCCTAGCTTAGTTTGCCACGACCTCGGAGTCACCTAGTGCAG | 3720 fluorescence intensity (a.u.) |
| CCGTGGGGTTCGCGCTGGCGTGCGTCCGCATCGCGGCGGGCGGAGTCACCTAGTGCAG | 4490 fluorescence intensity (a.u.) |
| AGTAGCTCAGCCTCAGATGAAATATCAGCAGATGAGGTCACGGAGTCACCTAGTGCAG | 6480 fluorescence intensity (a.u.) |
| TGGATGATTTTGAAGGCAATGTGGACAAGGACTGGGGTGCCGGAGTCACCTAGTGCAG | 19600 fluorescence intensity (a.u.) |
| TAACACGTCGCCGCGTCGTTTCTTGTTTCCCTCTGTTTATCGGAGTCACCTAGTGCAG | 3900 fluorescence intensity (a.u.) |
| CCTTCGTTGACGAAGCATGTGATCCCTTCCTACAAGGCTCCGGAGTCACCTAGTGCAG | 4190 fluorescence intensity (a.u.) |
| CCAGCGTCGAGTTCCACCCGCAGTGCGTCACGAACGCGCCCGGAGTCACCTAGTGCAG | 5900 fluorescence intensity (a.u.) |
| ACTGCTGACGGATTTCAGATCACTACTCCTACGCCTTACACGGAGTCACCTAGTGCAG | 3220 fluorescence intensity (a.u.) |
| TATTGATCTTGCTTCTTGGCCCCTTTACGTCACACGTTGACGGAGTCACCTAGTGCAG | 6270 fluorescence intensity (a.u.) |
| CTGCTTGAATCCTTCTCGCTGAGCTGGCCTGCAGCCTTTTCGGAGTCACCTAGTGCAG | 7190 fluorescence intensity (a.u.) |
| TTTATAGTGTAACGGTCGGTGTCAGACGACACCGATGATTCGGAGTCACCTAGTGCAG | 3200 fluorescence intensity (a.u.) |
| TTGATATTTTGCATTTGCGTGCAGCCTGTACAAAATTCTGCGGAGTCACCTAGTGCAG | 26400 fluorescence intensity (a.u.) |
| GAAGGCGGTTTTGACTGATGTGGCGCTTACGTGGCTGGTTCGGAGTCACCTAGTGCAG | 19500 fluorescence intensity (a.u.) |
| GCAAAGCAAAGCACCAGGGCAGGGGAGGGGCAGGGAGTTTCGGAGTCACCTAGTGCAG | 3180 fluorescence intensity (a.u.) |
| ACATCAACGTGTCATACACACACAACTTTTCAGTCACATCCGGAGTCACCTAGTGCAG | 4240 fluorescence intensity (a.u.) |
| TCACTCATGCAGAGTCACAGCTTGTATAGTTGTAATGCATCGGAGTCACCTAGTGCAG | 5370 fluorescence intensity (a.u.) |
| CATGGAAGCAGCGTGAGTGGCCTGATCATGGCGTTGTCTTCGGAGTCACCTAGTGCAG | 3690 fluorescence intensity (a.u.) |

Looked up above.
binding signal with ATAAAATATTGAACTGCTAATGATAATATAATCGAGTCAACGGAGTCACCTAGTGCAG reads 4670 fluorescence intensity (a.u.)
binding signal with AAAGGGTAGTACACACACTGCCGCCTCAGCGGGGAGATCTCGGAGTCACCTAGTGCAG reads 3310 fluorescence intensity (a.u.)
